From patent US7982053B2, “Peptide deformylase inhibitors” (GlaxoSmithKline LLC, priority 2005, dated 2011)
Structures can show the parent of a compound that is named as a salt. Where two headings read alike, the source gives them in different places. Some of these results come from one statement about several compounds together.

Target: T1, bacterial PDF (S. aureus or E. coli PDF, Def1 enzyme) (UniProt P68826)
T1 sequence (P68826 1-183): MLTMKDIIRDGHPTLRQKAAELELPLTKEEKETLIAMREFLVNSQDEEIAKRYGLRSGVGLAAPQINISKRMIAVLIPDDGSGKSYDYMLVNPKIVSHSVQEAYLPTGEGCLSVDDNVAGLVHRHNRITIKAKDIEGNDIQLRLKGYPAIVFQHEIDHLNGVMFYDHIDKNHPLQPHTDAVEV
Assay: Bacterial PDF Assay (formate dehydrogenase-coupled continuous enzyme-linked assay)
Type: biochemical

[1] = 25° C., substrate f-Met-Ala-Ser at KM, read-out: IC50 against bacterial PDF
[2] = read-out: IC50 against bacterial PDF, 25° C., substrate f-Met-Ala-Ser at KM

O=CN(O)C[C@@H](CC1CCCC1)C(=O)N1CCC[C@H]1C(=O)NC(=O)c1ccccn1 [Example 51, N-[1-((2R)-3-cyclopentyl-2-{[formyl(hydroxy)amino]methyl}propanoyl)-L-prolyl]-2-pyridinecarboxamide] was tested, and the IC50 [1] was no more than 100 nM.

C[C@@H](O)CNC(=O)NC(=O)[C@@H]1CCCN1C(=O)[C@H](CC1CCCC1)CN(O)C=O [Example 85, 1-((2R)-3-cyclopentyl-2-{[formyl(hydroxy)amino]methyl}propanoyl)-N-({[(2R)-2-hydroxypropyl]amino}carbonyl)-L-prolinamide] gave an IC50 [1] of no more than 100 nM.

With O=CN(O)C[C@@H](CC1CCCC1)C(=O)N1CCC[C@H]1C(=O)NC(=O)NCc1ccccc1 [Example 79, 1-((2R)-3-cyclopentyl-2-{[formyl(hydroxy)amino]methyl}propanoyl)-N-{[(phenylmethyl)amino]carbonyl}-L-prolinamide] the IC50 [1] was no more than 100 nM.

For O=CN(O)C[C@@H](CC1CCCC1)C(=O)N1CCC[C@H]1C(=O)NC(=O)NC1CCCC1 [Example 70, N-[(cyclopentylamino)carbonyl]-1-((2R)-3-cyclopentyl-2-{[formyl(hydroxy)amino]methyl}propanoyl)-L-prolinamide], the IC50 [1] was no more than 100 nM.

Cc1cc(C(=O)NC(=O)[C@@H]2CCCN2C(=O)[C@H](CC2CCCC2)CN(O)C=O)no1 [Example 9, 1-((2R)-3-cyclopentyl-2-{[formyl(hydroxy)amino]methyl}propanoyl)-N-[(5-methyl-3-isoxazolyl)carbonyl]-L-prolinamide] showed an IC50 [2] of no more than 100 nM.

O=CN(O)C[C@@H](CC1CCCC1)C(=O)N1CCC[C@H]1C(=O)NC(=O)NCCCc1ccccc1 [Example 87, 1-((2R)-3-cyclopentyl-2-{[formyl(hydroxy)amino]methyl}propanoyl)-N-{[(3-phenylpropyl)amino]carbonyl}-L-prolinamide] was tested, and the IC50 [1] was no more than 100 nM.

In the case of O=CN(O)C[C@@H](CC1CCCC1)C(=O)N1CCC[C@H]1C(=O)NC(=O)NCCO [Example 104, 1-((2R)-3-cyclopentyl-2-{[formyl(hydroxy)amino]methyl}propanoyl)-N-{[(2-hydroxyethyl)amino]carbonyl}-L-prolinamide], the IC50 [1] is reported as no more than 100 nM.

For O=CN(O)C[C@@H](CC1CCCC1)C(=O)N1CCC[C@H]1C(=O)NC(=O)NC[C@H](O)c1ccccc1 [Example 137, 1-((2)-3-cyclopentyl-2-{[formyl(hydroxy)amino]methyl}propanoyl)-N-({[(2R)-2-hydroxy-2-phenylethyl]amino}carbonyl)-L-prolinamide], the IC50 [1] was no more than 100 nM.

Compound CCNC(=O)NC(=O)[C@H]1N(C(=O)[C@H](CC2CCCC2)CN(O)C=O)CCC1(C)C [Example 116, 1-((2R)-3-cyclopentyl-2-{[formyl(hydroxy)amino]methyl}propanoyl)-N-[(ethylamino)carbonyl]-3,3-dimethyl-L-prolinamide] has an IC50 [1] of no more than 100 nM.

In the case of O=CN(O)C[C@@H](CC1CCCC1)C(=O)N1CCC[C@H]1C(=O)NC(=O)CC1CCCC1 [Example 56, N-(cyclopentylacetyl)-1-((2R)-3-cyclopentyl-2-{[formyl(hydroxy)amino]methyl}propanoyl)-L-prolinamide], the IC50 [1] is reported as no more than 100 nM.

Compound O=CN(O)C[C@@H](CC1CCCC1)C(=O)N1CCC[C@H]1C(=O)NC(=O)NCCc1cnccn1 [Example 92, 1-((2R)-3-cyclopentyl-2-{[formyl(hydroxy)amino]methyl}propanoyl)-N-({[2-(2-pyrazinyl)ethyl]amino}carbonyl)-L-prolinamide] has an IC50 [1] of no more than 100 nM.

For O=CN(O)C[C@@H](CC1CCCC1)C(=O)N1CCC[C@H]1C(=O)NC(=O)NCCc1cccnc1 [Example 86, 1-((2R)-3-cyclopentyl-2-{[formyl(hydroxy)amino]methyl}propanoyl)-N-({[2-(3-pyridinyl)ethyl]amino}carbonyl)-L-prolinamide hydrochloride], the IC50 [1] was no more than 100 nM.

In the case of O=CN(O)C[C@@H](CC1CCCC1)C(=O)N1CCC[C@H]1C(=O)NC(=O)NCCCN1CCCC1=O [Example 98, 1-((2R)-3-cyclopentyl-2-{[formyl(hydroxy)amino]methyl}propanoyl)-N-({[3-(2-oxo-1-pyrrolidinyl)propyl]amino}carbonyl)-L-prolinamide], the IC50 [1] is reported as no more than 100 nM.

COc1ccc2[nH]cc(CCNC(=O)NC(=O)[C@@H]3CCCN3C(=O)[C@H](CC3CCCC3)CN(O)C=O)c2c1 [Example 97, 1-((2R)-3-cyclopentyl-2-{[formyl(hydroxy)amino]methyl}propanoyl)-N-[({2-[5-(methyloxy)-1H-indol-3-yl]ethyl}amino)carbonyl]-L-prolinamide] showed an IC50 [1] of no more than 100 nM.

CC(C)OCCCNC(=O)NC(=O)[C@@H]1CCCN1C(=O)[C@H](CC1CCCC1)CN(O)C=O [Example 106, 1-((2R)-3-cyclopentyl-2-{[formyl(hydroxy)amino]methyl}propanoyl)-N-[({3-[(1-methylethyl)oxy]propyl}amino)carbonyl]-L-prolinamide] was tested, and the IC50 [1] was no more than 100 nM.

With Cc1cc(C(=O)NC(=O)[C@@H]2CCCN2C(=O)[C@H](CC2CCCC2)CN(O)C=O)n(C)n1 [Example 8, 1-((2R)-3-cyclopentyl-2-{[formyl(hydroxy)amino]methyl}propanoyl)-N-[(1,3-dimethyl-1H-pyrazol-5-yl)carbonyl]-L-prolinamide] the IC50 [2] was no more than 100 nM.

Work on CC(C)(C)OC(=O)NC(=O)[C@@H]1CCCN1C(=O)[C@H](CC1CCCC1)CN(O)C=O [Example 32, 1-((2R)-3-cyclopentyl-2-{[formyl(hydroxy)amino]methyl}propanoyl)-N-{[(1,1-dimethylethyl)oxy]carbonyl}-L-prolinamide] yielded an IC50 [1] of no more than 100 nM.

In the case of CC1(C)CCN(C(=O)[C@H](CC2CCCC2)CN(O)C=O)[C@@H]1C(=O)NC(=O)O[C@@H]1CCOC1 [Example 111, 1-((2R)-3-cyclopentyl-2-{[formyl(hydroxy)amino]methyl}propanoyl)-3,3-dimethyl-N-{[(3R)-tetrahydro-3-furanyloxy]carbonyl}-L-prolinamide], the IC50 [1] is reported as no more than 100 nM.

For CCN1CCN(c2ccc(C(=O)NC(=O)[C@@H]3CCCN3C(=O)[C@H](CC3CCCC3)CN(O)C=O)cc2)CC1 [Example 35, 1-((2R)-3-cyclopentyl-2-{[formyl(hydroxy)amino]methyl}propanoyl)-N-{[4-(4-ethyl-1-piperazinyl)phenyl]carbonyl}-L-prolinamide], the IC50 [1] was no more than 100 nM.

Work on CN(C)[C@H]1CC[C@H](OC(=O)NC(=O)[C@@H]2CCCN2C(=O)[C@H](CC2CCCC2)CN(O)C=O)CC1 [Example 33, 1-((2R)-3-cyclopentyl-2-{[formyl(hydroxy)amino]methyl}propanoyl)-N-({[trans-4-(dimethylamino)cyclohexyl]oxy}carbonyl)-L-prolinamide] yielded an IC50 [1] of no more than 100 nM.

CCOC(=O)N1CCC(NC(=O)NC(=O)[C@@H]2CCCN2C(=O)[C@H](CC2CCCC2)CN(O)C=O)CC1 [Example 90, Ethyl 4-[({[1-((2R)-3-cyclopentyl-2-{[formyl(hydroxy)amino]methyl}propanoyl)-L-prolyl]amino}carbonyl)amino]-1-piperidinecarboxylate] gave an IC50 [1] of no more than 100 nM.

In the case of O=CN(O)C[C@@H](CC1CCCC1)C(=O)N1CCC[C@H]1C(=O)NC(=O)c1ccc(C(F)(F)F)nc1 [Example 6, N-[1-((2R)-3-cyclopentyl-2-{[formyl(hydroxy)amino]methyl}propanoyl)-L-prolyl]-6-(trifluoromethyl)-3-pyridinecarboxamide], the IC50 [2] is reported as no more than 100 nM.

Work on CCCCC[C@H](CN(O)C=O)C(=O)N1CCC[C@H]1C(=O)NC(=O)C(C)(C)C [Example 61, N-(2,2-dimethylpropanoyl)-1-((2R)-2-{[formyl(hydroxy)amino]methyl}heptanoyl)-L-prolinamide] yielded an IC50 [1] of no more than 100 nM.
